In article PMC3789215:
These are yes or no findings as the source states them, for the method shown. Binding seen in cells or lysates may run through a third protein. Some results given as binding are weak or reduced against the parent protein; the word gives no strength.

Amino acid sequences for entries named in this document (tags omitted).
UniProt Q8R4B8: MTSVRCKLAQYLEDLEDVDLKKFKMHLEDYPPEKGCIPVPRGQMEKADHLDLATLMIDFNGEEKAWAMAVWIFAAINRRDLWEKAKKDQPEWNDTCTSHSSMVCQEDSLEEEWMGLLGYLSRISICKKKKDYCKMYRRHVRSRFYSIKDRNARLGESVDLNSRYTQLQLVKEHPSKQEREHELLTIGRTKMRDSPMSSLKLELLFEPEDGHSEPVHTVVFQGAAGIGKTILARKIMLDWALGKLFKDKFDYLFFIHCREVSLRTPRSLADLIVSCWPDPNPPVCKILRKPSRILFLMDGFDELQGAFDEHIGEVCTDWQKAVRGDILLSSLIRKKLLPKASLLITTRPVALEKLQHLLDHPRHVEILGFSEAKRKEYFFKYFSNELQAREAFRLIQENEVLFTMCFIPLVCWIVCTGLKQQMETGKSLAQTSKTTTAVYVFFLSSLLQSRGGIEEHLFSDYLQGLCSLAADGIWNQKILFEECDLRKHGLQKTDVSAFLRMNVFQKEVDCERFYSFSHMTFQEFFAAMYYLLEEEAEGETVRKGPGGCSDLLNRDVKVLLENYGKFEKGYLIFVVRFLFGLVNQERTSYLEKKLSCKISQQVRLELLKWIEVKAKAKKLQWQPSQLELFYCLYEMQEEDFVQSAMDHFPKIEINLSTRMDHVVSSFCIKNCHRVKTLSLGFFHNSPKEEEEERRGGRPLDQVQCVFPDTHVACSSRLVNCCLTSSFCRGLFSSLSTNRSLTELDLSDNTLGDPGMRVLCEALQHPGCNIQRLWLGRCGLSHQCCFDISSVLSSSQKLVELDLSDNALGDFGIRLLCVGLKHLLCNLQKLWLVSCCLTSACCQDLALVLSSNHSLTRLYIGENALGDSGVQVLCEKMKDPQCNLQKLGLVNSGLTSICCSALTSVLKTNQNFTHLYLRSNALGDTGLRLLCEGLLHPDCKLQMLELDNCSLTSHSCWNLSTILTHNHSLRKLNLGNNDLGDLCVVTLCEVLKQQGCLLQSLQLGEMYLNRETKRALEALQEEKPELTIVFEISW

T1: ASC [apoptosis-associated speck-like protein containing a caspase recruitment domain (CARD)] (mouse (endogenous in VAT and pancreas)) (UniProt Q9EPB4)
T1 sequence: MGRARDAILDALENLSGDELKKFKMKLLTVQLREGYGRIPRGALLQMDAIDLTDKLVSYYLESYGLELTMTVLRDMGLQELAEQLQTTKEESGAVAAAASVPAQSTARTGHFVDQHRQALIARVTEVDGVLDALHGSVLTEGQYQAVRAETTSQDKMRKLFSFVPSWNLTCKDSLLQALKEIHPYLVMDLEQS


Assays:
[1] = molecular target: T1, ASC [apoptosis-associated speck-like protein containing a caspase recruitment domain (CARD)] (mouse (endogenous in VAT and pancreas)); assay: condition: only naïve or sham-operated control mice (no SCI); co-IP; as a3, VAT lysate of naive or sham-operated control mice
[2] = molecular target: NLRP3 (NOD-like receptor family, pyrin domain containing 3) (mouse (endogenous in VAT and pancreas)) (UniProt Q8R4B8); assay: as above
[3] = molecular target: T1, ASC [apoptosis-associated speck-like protein containing a caspase recruitment domain (CARD)] (mouse (endogenous in VAT and pancreas)); assay: condition: only naïve or sham-operated control mice (no SCI); co-IP; as a5, pancreas lysate of naive or sham-operated control mice
[4] = molecular target: NLRP3 (NOD-like receptor family, pyrin domain containing 3) (mouse (endogenous in VAT and pancreas)) (UniProt Q8R4B8); assay: as above
[5] = molecular target: T1, ASC [apoptosis-associated speck-like protein containing a caspase recruitment domain (CARD)] (mouse (endogenous in VAT and pancreas)); assay: co-IP; pancreas lysate of mice 1 month post-SCI; 200 ug precleared lysate, 5 ug/ml anti-NLRP3 or anti-ASC overnight at 4 C, Trueblot IgG beads, six washes in lysis buffer (1% Triton X-100); immunoblot
[6] = molecular target: NLRP3 (NOD-like receptor family, pyrin domain containing 3) (mouse (endogenous in VAT and pancreas)) (UniProt Q8R4B8); assay: as above
[7] = molecular target: T1, ASC [apoptosis-associated speck-like protein containing a caspase recruitment domain (CARD)] (mouse (endogenous in VAT and pancreas)); assay: co-IP; VAT lysate of mice 1 month post-SCI; 200 ug precleared lysate, 5 ug/ml anti-NLRP3 or anti-ASC overnight at 4 C, Trueblot IgG beads, six washes in lysis buffer (1% Triton X-100, 1% Nonidet P40, 0.1% SDS); immunoblot
[8] = molecular target: NLRP3 (NOD-like receptor family, pyrin domain containing 3) (mouse (endogenous in VAT and pancreas)) (UniProt Q8R4B8); assay: as above

| Binder | binding [1] | binding [2] | binding [3] | binding [4] | binding [5] | binding [6] | binding [7] | binding [8] |
| --- | --- | --- | --- | --- | --- | --- | --- | --- |
| pro-forms of caspase-1 (45, 50 kDa) (protein, UniProt P29452 1-402) MADKILRAKRKQFINSVSIGTINGLLDELLEKRVLNQEEMDKIKLANITAMDKARDLCDHVSKKGPQASQIFITYICNEDCYLAGILELQSAPSAETFVATEDSKGGHPSSSETKEEQNKEDGTFPGLTGTLKFCPLEKAQKLWKENPSEIYPIMNTTTRTRLALIICNTEFQHLSPRVGAQVDLREMKLLLEDLGYTVKVKENLTALEMVKEVKEFAACPEHKTSDSTFLVFMSHGIQEGICGTTYSNEVSDILKVDTIFQMMNTLKCPSLKDKPKVIIIQACRGEKQGVVLLKDSVRDSEEDFLTDAIFEDDGIKKAHIEKDFIAFCSSTPDNVSWRHPVRGSLFIESLIKHMKEYAWSCDLEDIFRKVRFSFEQPEFRLQMPTADRVTLTKRFYLFPGH | no binding | no binding | no binding | no binding | binds | binds | binds | binds |
| Caspase-3 (protein, UniProt P70677 1-277) MENNKTSVDSKSINNFEVKTIHGSKSVDSGIYLDSSYKMDYPEMGICIIINNKNFHKSTGMSSRSGTDVDAANLRETFMGLKYQVRNKNDLTREDILELMDSVSKEDHSKRSSFVCVILSHGDEGVIYGTNGPVELKKLTSFFRGDYCRSLTGKPKLFIIQACRGTELDCGIETDSGTDEEMACQKIPVEADFLYAYSTAPGYYSWRNSKDGSWFIQSLCSMLKLYAHKLEFMHILTRVNRKVATEFESFSLDSTFHAKKQIPCIVSMLTKELYFYH |  |  |  |  | no binding | no binding | no binding | no binding |
